In publication PMC4824496:
No constants are given. Whether binding was seen depends on the method and setting. Some entries that bind do so weakly or less than the wild type.

The chains behind the UniProt entries cited, without tags or fusion partners. Residues count along the entry.
UniProt O00206, residues 24-839: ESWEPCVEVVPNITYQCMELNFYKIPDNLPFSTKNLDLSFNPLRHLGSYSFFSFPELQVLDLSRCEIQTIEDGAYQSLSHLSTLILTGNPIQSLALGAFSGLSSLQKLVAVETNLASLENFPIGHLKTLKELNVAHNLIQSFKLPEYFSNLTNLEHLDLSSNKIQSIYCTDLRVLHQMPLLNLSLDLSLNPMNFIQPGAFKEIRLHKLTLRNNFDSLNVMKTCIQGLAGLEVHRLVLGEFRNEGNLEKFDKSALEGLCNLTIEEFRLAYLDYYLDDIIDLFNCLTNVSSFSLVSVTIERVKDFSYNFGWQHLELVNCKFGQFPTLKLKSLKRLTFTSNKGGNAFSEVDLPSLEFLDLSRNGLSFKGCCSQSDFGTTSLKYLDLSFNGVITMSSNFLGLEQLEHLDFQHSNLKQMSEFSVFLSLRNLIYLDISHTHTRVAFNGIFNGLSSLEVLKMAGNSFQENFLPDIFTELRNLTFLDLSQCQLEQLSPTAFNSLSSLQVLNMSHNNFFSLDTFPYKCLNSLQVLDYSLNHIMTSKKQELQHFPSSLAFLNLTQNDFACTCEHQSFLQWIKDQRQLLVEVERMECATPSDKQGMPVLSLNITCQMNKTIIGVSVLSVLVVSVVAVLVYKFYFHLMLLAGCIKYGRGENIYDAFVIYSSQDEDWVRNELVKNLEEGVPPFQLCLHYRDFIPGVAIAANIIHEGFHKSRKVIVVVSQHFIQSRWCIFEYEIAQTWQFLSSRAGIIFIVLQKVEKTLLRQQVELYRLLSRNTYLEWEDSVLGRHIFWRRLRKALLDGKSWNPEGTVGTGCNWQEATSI
UniProt P06733: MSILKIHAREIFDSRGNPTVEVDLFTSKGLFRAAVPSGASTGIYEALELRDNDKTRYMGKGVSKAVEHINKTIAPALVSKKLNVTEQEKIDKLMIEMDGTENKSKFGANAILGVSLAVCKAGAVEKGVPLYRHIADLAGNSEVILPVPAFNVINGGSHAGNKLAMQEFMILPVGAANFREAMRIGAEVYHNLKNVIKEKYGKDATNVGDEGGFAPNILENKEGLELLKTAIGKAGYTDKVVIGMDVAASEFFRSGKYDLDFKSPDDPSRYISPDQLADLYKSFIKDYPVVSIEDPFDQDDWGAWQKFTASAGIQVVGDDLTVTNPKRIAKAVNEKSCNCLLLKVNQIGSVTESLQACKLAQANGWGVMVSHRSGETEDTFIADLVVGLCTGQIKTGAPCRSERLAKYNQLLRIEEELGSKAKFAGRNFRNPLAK

Target: Human TLR4 on HEK-Blue hTLR4 cells (human) (UniProt O00206)
Assay: flow cytometry on cells; competitive binding assay: 1.10^6 HEK-Blue hTLR4 cells for 20 minutes at 4 °C with sucrose (1 mg) and ENO1 (25 μg, 500 μg or 2 mg), then 55 μg FITC-labelled LPS and 10 μl APC-labelled anti-TLR4 antibody for 20 minutes at 4 °C; only the binder purified

binding: binds
Substance: Human recombinant alpha-enolase (ENO1) (from UniProt P06733 1-434)
